Data reported in PubChem BioAssay AID504467 (National Center for Advancing Translational Sciences (NCATS), 2011).
In all, about 330,000 compounds went through this assay and about 7,700 (2.3%) were called active. The shares of active, inactive and inconclusive entries below differ from those in the screen. Calls follow the shape of the dose curve; as a rule, active = well fitted inhibition curve with a large enough effect; inconclusive = small, poorly fitted or top-dose-only effect, or effect the other way; inactive = flat fitted curve, though single readings scatter. A potency beside an inconclusive call is a rough fit, not a confirmed value.

Assay: qHTS screen for small molecules that inhibit ELG1-dependent DNA repair in human embryonic kidney (HEK293T) cells expressing luciferase-tagged ELG1; also: nearly all actives have a fitted effect of over 55% in size
Settings: HEK293T ELG1-luciferase reporter, luminescence, 16 h, DNA damage induced by 5-fluorouridine; activity change, negative = inhibition: at 46.1 µM (top of the series)
Summary of the method: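 Cells (2,000 per well) received 5-fluorouridine plus test compound or DMSO and were incubated 16 hr at 37 °C, 5% CO2. Luciferase activity was read by luminescence 30 min after ONE-Glo addition; signal suppression marked inhibition of damage-induced ELG1 function.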
% is scaled to controls: 0 for no effect and ±100 for the full control effect; potency is read from the fitted curve at half-maximal effect.

Structure (SMILES) | activity change, negative = inhibition | Potency
COc1ccc(/C=C(\NC(=O)c2ccccc2)C(=O)OC[C@@H]2CCC[N+]3(C)CCCCC23)cc1OC (some centres not stated) | inactive: 4.79% | 
CS(=O)(=O)N1N=C(c2ccc(Cl)cc2)CC1c1cccs1 (configuration not stated) |  | inconclusive: 18.4 µM [activator, partial curve]
Cc1cc(Oc2ccccc2F)nc(NCc2ccccc2)n1 |  | inconclusive: 0.58 µM [activator, partial curve, poor fit]
COc1ccccc1-n1cnc2c(c1=O)c1nc3ccccc3nc1n2CCc1ccccc1 |  | inconclusive: 25.9 µM [inhibitor, partial curve, poor fit]
Nc1ncnc2c1c(-c1ccc(Oc3ccccc3)cc1)cn2C1CCCC1 |  | inconclusive: 35.5 µM [inhibitor, single point]
CCC(=O)Oc1c(C(=O)CC)cc2c(C)cc(=O)oc2c1C |  | inconclusive: 10.3 µM [inhibitor, partial curve]
COc1c(C)cc(C(=O)C2CCCN(C(=O)c3cccc(F)c3)C2)cc1C (configuration not stated) |  | inconclusive: 5.8 µM [activator, single point]
COc1ccccc1C(=O)NCCC(=O)N1CCN(c2ccccc2O)CC1 | inactive: 4.74% | 
COc1ccc(NC(=O)CCN2CCN(S(=O)(=O)c3ccc(C(C)C)cc3)CC2)cc1 |  | inconclusive: 29.1 µM [inhibitor, single point]
O=C1CC(N2CCN(c3ccccc3)CC2)C(=O)N1CCc1ccccc1 (configuration not stated) | inactive: -9.81% | 
O=C(CN(C(=O)c1cc2c(s1)CCC2)C1CCCC1)NCc1cccs1 |  | inconclusive: 16.4 µM [inhibitor, single point]
CCOc1ccc(CNC(=O)C(=O)c2cn(CC(=O)N3CCOCC3)c3ccccc23)cc1OC | inactive: 2.22% | 
CC(Oc1ccc(-c2ccccc2)c(F)c1)c1ccn(S(=O)(=O)c2ccc(Br)cc2)n1 (configuration not stated) |  | inconclusive: 6.51 µM [activator, partial curve, poor fit]
CCOc1ccccc1NC(=O)C1CCCN(S(=O)(=O)c2ccc(OC)c(C)c2)C1 (configuration not stated) |  | inconclusive: 16.4 µM [inhibitor, single point]
O=C(Cc1cccs1)N(Cc1ccco1)C1(C(=O)NC2CCCCC2)CCCCC1 |  | inconclusive: 2.91 µM [inhibitor, partial curve, poor fit]
O=[N+]([O-])c1cccc(S(=O)(=O)NCc2ccncc2)c1 |  | inconclusive: 3.66 µM [inhibitor, partial curve, poor fit]
COc1ccccc1C(=O)COC(=O)CN1C(=O)C2CC=CCC2C1=O (configuration not stated) |  | inconclusive: 29.1 µM [activator, partial curve, poor fit]
O=C1C(C=NCC2CCCO2)=C(O)c2ccccc21 (configuration not stated) |  | inconclusive: 8.2 µM [activator, partial curve]
COc1ccc(C)cc1S(=O)(=O)N(CC(=O)Nc1ccc2c(c1)OCCO2)Cc1ccccc1 |  | active: 18.4 µM
O=C(COC(=O)c1cc(S(=O)(=O)N2CCCCC2)ccc1Cl)NC1CCS(=O)(=O)C1 (configuration not stated) |  | inconclusive: 10.3 µM [activator, partial curve]
CN(C)c1ccc(/C=N/NC(=O)c2ccccc2O)o1 |  | inconclusive: 20.6 µM [activator, partial curve, poor fit]

Structure (SMILES) | activity change, negative = inhibition | Potency
Cc1ccc(-n2c(SCC(=O)N3CC(=O)Nc4ccccc43)nc3ccccc3c2=O)cc1 |  | active: 18.4 µM
CN(c1ccccc1)S(=O)(=O)c1ccc(NC(=O)c2ccccc2)cc1 |  | inconclusive: 18.4 µM [inhibitor, single point]
COc1ccc(-c2c(=O)n(OCc3ccccc3[N+](=O)[O-])c3ccccc3[n+]2[O-])c(OC)c1 |  | inconclusive: 23.1 µM [inhibitor, single point]
CCn1c2ccccc2c2cc(NC(=O)COC(=O)c3cc(Cl)c(N)cc3OC)ccc21 |  | inconclusive: 29.1 µM [inhibitor, single point]
O=C(Nc1ccc(F)cc1)Nc1ccccc1N1CCCCC1 |  | active: 13 µM
C=CCOc1ccc2oc(=O)cc(C)c2c1 | inactive: 11% | 
CC(=O)c1c(C)[nH]c(C(=O)OCC(=O)Nc2cc(Cl)ccc2[N+](=O)[O-])c1C |  | active: 18.4 µM
CN(C(=O)c1cc2sccc2n1C)C1CCCCC1 |  | inconclusive: 18.4 µM [activator, partial curve]
CC(=O)Oc1ccc2c3c(c(=O)oc2c1C)CCCC3 | inactive: 2.45% | 
S=c1[nH]c2ccccc2n2cccc12 |  | inconclusive: 8.2 µM [activator, partial curve, poor fit]
COc1ccccc1Nc1nc(-c2cccs2)cs1 |  | inconclusive: 10.3 µM [activator, partial curve]
COCC(=O)Nc1ccc2c(c1)OCC(=O)N2Cc1ccc(C)cc1 | inactive: 25.4% | 
O=C(Nc1cccc(Cl)c1)c1cc(S(=O)(=O)N2CCOCC2)cs1 | inactive: -3.45% | 
CCN(CC)c1ccc2c(C)c(CO)c(=O)oc2c1 |  | inconclusive: 4.11 µM [activator, partial curve, poor fit]
COc1cccc(-c2nnc3n2N=C(c2cccc(Br)c2)CS3)c1 |  | inconclusive: 5.01 µM [inhibitor, single point]
O=C(COC(=O)C12CC3CC(CC(C3)C1)C2)Nc1ccccc1F |  | inconclusive: 16.4 µM [activator, single point]
CCc1nnc(NC(=O)c2cccc(S(=O)(=O)N(C)c3ccccc3)c2)s1 | inactive: -13.5% | 
CC(=O)Nc1cccc(NC(=O)CSc2ncc(C(=O)Nc3ccccc3)c(=O)n2C)c1 |  | inconclusive: 29.1 µM [activator, single point]
CCCCCCN1C2=NCCCN2c2ccccc21 |  | inconclusive: 18.3 µM [inhibitor, partial curve]
N#Cc1c(-c2ccc(F)cc2)nc(-c2ccccc2)[nH]c1=O |  | inconclusive: 25.9 µM [inhibitor, partial curve, poor fit]
COC(=O)c1ccccc1NC1=C/C(=N\S(=O)(=O)c2ccc(C(=O)O)cc2)c2ccccc2C1=O |  | inconclusive: 23.1 µM [inhibitor, partial curve, poor fit]

Ordered by length of the SMILES (smallest number first): part of the list above
Structure (SMILES) | activity change, negative = inhibition | Potency
Cc1cc(Oc2ccccc2F)nc(NCc2ccccc2)n1 |  | inconclusive: 0.58 µM [activator, partial curve, poor fit]
O=C(Nc1ccc(F)cc1)Nc1ccccc1N1CCCCC1 |  | active: 13 µM
O=[N+]([O-])c1cccc(S(=O)(=O)NCc2ccncc2)c1 |  | inconclusive: 3.66 µM [inhibitor, partial curve, poor fit]
